# No constants are given. Whether binding was seen depends on the method and setting. Binding seen in cells or lysates may run through a third protein. Some results given as binding are weak or reduced against the parent protein; the word gives no strength.
# The chains behind the UniProt entries cited, without tags or fusion partners.
# UniProt Q99836: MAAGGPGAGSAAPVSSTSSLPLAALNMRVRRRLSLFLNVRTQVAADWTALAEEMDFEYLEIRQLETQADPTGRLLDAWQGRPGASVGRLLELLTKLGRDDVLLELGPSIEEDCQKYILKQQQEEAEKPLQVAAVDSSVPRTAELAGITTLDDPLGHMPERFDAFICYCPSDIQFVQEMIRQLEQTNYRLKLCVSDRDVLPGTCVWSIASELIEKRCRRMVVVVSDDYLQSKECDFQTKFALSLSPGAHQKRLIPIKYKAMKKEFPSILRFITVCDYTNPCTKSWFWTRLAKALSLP
# UniProt Q13191: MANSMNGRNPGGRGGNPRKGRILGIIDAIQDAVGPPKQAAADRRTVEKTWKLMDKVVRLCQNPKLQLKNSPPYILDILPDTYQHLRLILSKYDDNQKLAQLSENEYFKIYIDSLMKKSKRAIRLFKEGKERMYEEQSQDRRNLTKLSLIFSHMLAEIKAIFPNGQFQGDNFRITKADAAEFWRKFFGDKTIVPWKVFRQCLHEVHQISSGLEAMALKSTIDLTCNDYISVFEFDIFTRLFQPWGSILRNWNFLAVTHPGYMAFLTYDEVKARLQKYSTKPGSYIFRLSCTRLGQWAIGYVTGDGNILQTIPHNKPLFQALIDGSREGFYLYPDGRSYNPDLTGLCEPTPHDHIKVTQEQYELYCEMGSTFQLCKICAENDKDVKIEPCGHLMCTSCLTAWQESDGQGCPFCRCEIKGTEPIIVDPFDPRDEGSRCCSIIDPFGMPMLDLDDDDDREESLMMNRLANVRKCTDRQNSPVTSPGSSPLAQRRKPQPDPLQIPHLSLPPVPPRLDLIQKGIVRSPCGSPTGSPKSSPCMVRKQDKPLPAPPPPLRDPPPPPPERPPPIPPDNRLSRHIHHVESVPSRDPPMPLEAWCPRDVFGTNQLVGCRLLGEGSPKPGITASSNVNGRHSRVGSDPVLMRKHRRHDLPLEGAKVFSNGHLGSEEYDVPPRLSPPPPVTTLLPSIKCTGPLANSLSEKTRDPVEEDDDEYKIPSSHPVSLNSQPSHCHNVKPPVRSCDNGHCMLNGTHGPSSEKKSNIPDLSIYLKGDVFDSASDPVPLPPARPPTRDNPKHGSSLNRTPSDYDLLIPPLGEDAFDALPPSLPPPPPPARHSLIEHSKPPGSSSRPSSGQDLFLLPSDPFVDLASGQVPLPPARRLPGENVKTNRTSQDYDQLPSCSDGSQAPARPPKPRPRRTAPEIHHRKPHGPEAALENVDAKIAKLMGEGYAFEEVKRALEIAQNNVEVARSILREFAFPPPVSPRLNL
# Target: MyD88-HA, expressed from pcDNA3.1(+)-MyD88-HA (UniProt Q99836)
# Assay: co-IP; COS7 cells transfected 48 h with pcDNA3.1(+)-MyD88-HA alone or together with pcDNA3.1(+)-Cbl-b-3×Flag; lysate incubated with anti-HA antibody 2 h at 4°C, protein A-agarose overnight at 4°C; Western blot with anti-Flag
substance,measurement,value
"Cbl-b-3×FLAG, expressed from pcDNA3.1(+)-Cbl-b-3×FLAG (from UniProt Q13191 1-982)",binding,binds

# — paper PMC10714978
